In patent US4885277A, “Anticoagulant therapy” (Oklahoma Medical Research Foundation, priority 1987, dated 1989):
Part of at least one peptide drawing is inferred or uncertain, most often the ends. Where no end group is shown, it is not given here.

Assays:
[1] = system: endothelial cellular receptors for Factor IX (cultured bovine aortic endothelial cells); assay: Competitive binding of [125I]-Factor IX to cultured bovine aortic endothelial cells; details: for Ki: cultured bovine aortic endothelial cells, 4-5 hours at 4° C., mean, SEM less than 20%, read-out: Inhibitory Constant, inhibition of binding of [125I]-Factor IX
Description: The purified peptides were tested for their ability to block the binding of bovine Factor IX and IXa to cultured bovine aortic endothelial cells. Bovine Factor IX and IXa for these studies were prepared and radioiodinated (using Na^125 I and the solid state lactoperoxidase technique) using methods described by Stern, et al. (J. Biol. Chem. 260, pp. 6717-6722 [1985]). Bovine aortic endothelial cells were obtained from the aortae of newborn calves as described by Stern, et al. (Proc. Natl. Acad. Sci. U.S.A., 80, pp. 4119-4123 [1983]). These endothelial cells were grown to confluence (1.3×10^5 cells/cm^2) in culture dishes. Binding assays were carried out by incubating either ^125 I-Factor IX or ^125 I-Factor IXa with endothelial cell monolayers in the presence of varying concentrations of one of the peptides. The buffer used in these experiments was Minimal Essential Medium containing 0.5 mg/ml transferring, and the incubation time was 4-5 hours at 4° C. At the end of the incubation period, the cultures were washed to remove unbound material. Then, specifically bound [^125 I]-Factor IX or [^125 I]-Factor IXa was eluted during exposure to EDTA-containing buffer as described by Stern, et al. (Proc. Natl. Acad. Sci. U.S.A., 80, pp. 4119-4123 [1983].

[2] = system: Factors IXa-VIII-mediated activation of Factor X; assay: Endothelial cell-dependent Factors IXa-VIII-mediated activation of Factor X (chromogenic Factor Xa assay); assay type: cell-based; details: endothelial cell monolayers with Factors IXa, VIII and X; mean, SEM less than 20%; read-out: Inhibitory Constant, activation of Factor X
[3] = Prothrombin time and activated partial thromboplastin time of citrated blood after peptide infusion; assay type: in vivo; details: rabbits, 8 mg pentapeptide without Factor IXa, citrated blood 1, 3, 5 and 10 minutes after infusion
[4] = system: thrombus formation in jugular vein; assay: Wessler stasis venous thrombosis model, procoagulant Factor IXa; assay type: in vivo, rabbits; details: rabbit, Factor IXa 600 ng with 10 mg pentapeptide, vein inspected after 16 minutes

ADSGEGDFLAEGGGVR [fibrinopeptide A, Ala-Asp-Ser-Gly-Glu-Gly-Asp-Phe-Leu-Ala-Glu-Gly-Gly-Gly-Val-Arg, reference compound]
inhibition of [125I]-Factor IX endothelial cell binding ([1]; up to millimolar amounts of peptide): no inhibition

DGDQC [Pentapeptide, Asp-Gly-Asp-Gln-Cys]
Ki [1]: 90 µM
outcome of competitive binding experiments ([1]; two sets of experiments, partially purified material): failed
Ki [2]: 105 µM
activated partial thromboplastin time [3]: unchanged
prothrombin time [3]: unchanged
thrombus grade on a scale of 0 to 4 [4]: 1 grade

EGEQC [Glu-Gly-Glu-Gln-Cys, reference compound]
inhibition of [125I]-Factor IX binding (specificity test) ([1]; aspartic acid residues replaced with glutamic acid): ineffective

KQYVDGDQC [Nonapeptide, Lys-Gln-Tyr-Val-Asp-Gly-Asp-Gln-Cys]
Ki [1]: 100 µM
Ki [2]: 108 µM
